Measured values published in paper doi:10.1101/2022.01.12.474522.
The exact form of at least one protein or probe is not confirmed. No signal at the amounts used counts as a negative.

System: OscWRKY1 (Ocimum sanctum)
Test: EMSA

Sequence | binding result
AGATTGACGAGATTTGACGTGTTGACGCT (double strand) [W-box 1 (M), TTGACG] | no binding
ACAAAAATTTGACTATACTTGACTATTAGTG / ACACTAATAGTCAAGTATAGTCAAATTTTTG [W-box 5 (TTGACT) probe] | binds
AGATTGACCAGATTTGACCTGTTGACCCT / AGGTCAATAAGGGTCAACAGGTCAAATC [W-box 1 (TTGACC) probe] | binds
ACAAAAATTTCACTATACTTCACTATT (double strand) [W-box 5 (M), TTCACT] | no binding
